Values from PubChem BioAssay AID602196 (INSERM, 2012).
Screen: 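Knock-downs that protect lung cancer cells from cisplatin or sensitise them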. Cell system: human A549 lung cancer cells. Reagent: siRNA pair against human genes. Duration: 48 h transfection before cisplatin; time from cisplatin to read-out not stated. Conditions: cisplatin at a dose killing half of control-siRNA cells; exact dose and duration not given. Detection: 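Cisplatin cell death as a shift from the 50% death seen with control siRNA; siRNAs toxic or growth-blocking alone scored 0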. Direction: two-siRNA summed score (-2 to +2): higher = both siRNAs protect from cisplatin killing; -2 means both sensitise. Hit rule: 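siRNAs harmful alone (LDH or WST-1) get 0; others get +1 for less and -1 for more cisplatin killing; genes are active when the two siRNAs give the same sign, summing to ±2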. Calls: active = both siRNAs shift cisplatin killing the same way; inactive = no consistent shift, or siRNA harmful alone.
The deposit covers about 23,000 reagents; shown is an unselected part. In the full data, 455 (2%) got an active call. 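Active includes both protection and sensitisation; some change values fall well beyond the stated -50 to +50 range.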 Unmarked entries are inactive. Not all columns of the deposit are shown. Reagent sequences are not shown. The record does not give: the amount of reagent.

{"Gene":"LOC390386","PubChem SID":"SID131522929","two-siRNA summed score (-2 to +2)":"2 (active)"}
{"Gene":"KANK1","PubChem SID":"SID131501474","two-siRNA summed score (-2 to +2)":-1}
{"Gene":"RECQL5","PubChem SID":"SID131513835","two-siRNA summed score (-2 to +2)":0}
{"Gene":"SLC6A13","PubChem SID":"SID131504818","two-siRNA summed score (-2 to +2)":0}
{"Gene":"ADAM28","PubChem SID":"SID131507537","two-siRNA summed score (-2 to +2)":0}
{"Gene":"DKFZp686L21136","PubChem SID":"SID131513685","two-siRNA summed score (-2 to +2)":0}
{"Gene":"ETV5","PubChem SID":"SID131505870","two-siRNA summed score (-2 to +2)":0}
{"Gene":"LOC391269","PubChem SID":"SID131521717","two-siRNA summed score (-2 to +2)":1}
{"Gene":"MEF2D","PubChem SID":"SID131518019","two-siRNA summed score (-2 to +2)":0}
{"Gene":"FOXK2","PubChem SID":"SID131501114","two-siRNA summed score (-2 to +2)":-1}
{"Gene":"SLC67A1","PubChem SID":"SID131503980","two-siRNA summed score (-2 to +2)":0}
{"Gene":"LOC442527","PubChem SID":"SID131515196","two-siRNA summed score (-2 to +2)":0}
{"Gene":"LGALS2","PubChem SID":"SID131522180","two-siRNA summed score (-2 to +2)":1}
{"Gene":"LOC343384","PubChem SID":"SID131516445","two-siRNA summed score (-2 to +2)":0}
{"Gene":"LOC340211","PubChem SID":"SID131510260","two-siRNA summed score (-2 to +2)":0}
{"Gene":"LOC285777","PubChem SID":"SID131507791","two-siRNA summed score (-2 to +2)":0}
{"Gene":"GON4L","PubChem SID":"SID131513363","two-siRNA summed score (-2 to +2)":0}
{"Gene":"C6orf141","PubChem SID":"SID131519381","two-siRNA summed score (-2 to +2)":1}
{"Gene":"MDS010","PubChem SID":"SID131510094","two-siRNA summed score (-2 to +2)":0}
{"Gene":"IMMP1L","PubChem SID":"SID131504347","two-siRNA summed score (-2 to +2)":0}
{"Gene":"SRPK1","PubChem SID":"SID131500930","two-siRNA summed score (-2 to +2)":-1}
{"Gene":"LOC391370","PubChem SID":"SID131515963","two-siRNA summed score (-2 to +2)":0}
{"Gene":"IRAK3","PubChem SID":"SID131511299","two-siRNA summed score (-2 to +2)":0}
{"Gene":"LOC130106","PubChem SID":"SID131516879","two-siRNA summed score (-2 to +2)":0}
{"Gene":"ELP3","PubChem SID":"SID131516110","two-siRNA summed score (-2 to +2)":0}
{"Gene":"LOC402716","PubChem SID":"SID131515715","two-siRNA summed score (-2 to +2)":0}
{"Gene":"LOC387690","PubChem SID":"SID131513052","two-siRNA summed score (-2 to +2)":0}
{"Gene":"LALBA","PubChem SID":"SID131504412","two-siRNA summed score (-2 to +2)":0}
{"Gene":"LOC441345","PubChem SID":"SID131510828","two-siRNA summed score (-2 to +2)":0}
{"Gene":"ATP2B1","PubChem SID":"SID131502300","two-siRNA summed score (-2 to +2)":-1}
{"Gene":"TALDO1","PubChem SID":"SID131515140","two-siRNA summed score (-2 to +2)":0}
{"Gene":"HSF4","PubChem SID":"SID131502872","two-siRNA summed score (-2 to +2)":0}
{"Gene":"LOC284409","PubChem SID":"SID131513840","two-siRNA summed score (-2 to +2)":0}
{"Gene":"CCL3L3","PubChem SID":"SID131521668","two-siRNA summed score (-2 to +2)":1}
{"Gene":"CEP44","PubChem SID":"SID131510839","two-siRNA summed score (-2 to +2)":0}
{"Gene":"LINC01931","PubChem SID":"SID131510275","two-siRNA summed score (-2 to +2)":0}
{"Gene":"POFUT3","PubChem SID":"SID131509670","two-siRNA summed score (-2 to +2)":0}
{"Gene":"SRP72","PubChem SID":"SID131522988","two-siRNA summed score (-2 to +2)":"2 (active)"}
{"Gene":"SLC13A2","PubChem SID":"SID131502455","two-siRNA summed score (-2 to +2)":-1}
{"Gene":"TUBAL3","PubChem SID":"SID131516841","two-siRNA summed score (-2 to +2)":0}

5 entries from above, reformatted.
MDS010 [SID131510094]: two-siRNA summed score (-2 to +2) = 0
IMMP1L [SID131504347]: two-siRNA summed score (-2 to +2) = 0
SRPK1 [SID131500930]: two-siRNA summed score (-2 to +2) = -1
LOC391370 [SID131515963]: two-siRNA summed score (-2 to +2) = 0
IRAK3 [SID131511299]: two-siRNA summed score (-2 to +2) = 0
